Data published in PMC7819943, “Rice protein-binding microarrays: a tool to detect cis-acting elements near promoter regions in rice”.
This is one part of the list.

The chains behind the UniProt entries cited, without tags or fusion partners.
UniProt Q0JBA9, entry or part of it: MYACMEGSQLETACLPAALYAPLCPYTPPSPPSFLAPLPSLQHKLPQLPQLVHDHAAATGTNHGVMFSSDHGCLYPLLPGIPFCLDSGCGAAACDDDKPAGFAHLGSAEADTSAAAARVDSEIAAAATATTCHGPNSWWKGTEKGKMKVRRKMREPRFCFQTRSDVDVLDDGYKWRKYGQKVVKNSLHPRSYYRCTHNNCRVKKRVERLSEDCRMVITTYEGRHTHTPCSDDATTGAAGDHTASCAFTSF

target: OsWRKY34 (Oryza sativa, UniProt Q0JBA9 1-250); test: protein-binding microarray (RPBM); PBS, 2% BSA, 51.3 ng/ul salmon testes DNA, 50 uM zinc acetate, 200 nM TF, 25 C, 1 h; high values mean tight binding; conditions: protein: recombinant; tags: N-terminal polyhistidine and DsRed monomer fusion (pET32a); label: CyDye5-dUTP incorporated in the synthesized complementary strand; 3' TTTTT single-stranded linker to array surface; dsDNA, one strand shown
In short: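 Binding signal is reported as fluorescence intensity per feature (arbitrary units) from an Axon 4000B scanner. Incubation used 200 nM of each Ni–NTA-purified, N-terminally polyhistidine- and DsRed-fused transcription factor from E. coli BL21-CodonPlus on a double-stranded custom Agilent array for 1 h at 25 °C, with 50 µM zinc acetate in the buffer, followed by washing.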

Sequence	binding signal
CCGCCTGCGTACGCCCATCTCCTCCACCCCACGCGCGAGCCGGAGTCACCTAGTGCAG	10500 fluorescence intensity (a.u.)
ATATTACCCTATCCTTTTTTTCCCAATAAAGTCTATGTCCCGGAGTCACCTAGTGCAG	8660 fluorescence intensity (a.u.)
CCTTGTATTCGGCCCGCACACGCCAACCTGTCCTGTTCTGCGGAGTCACCTAGTGCAG	9600 fluorescence intensity (a.u.)
TTATTGTGCTAGCTGCATGCTGTTTTTAATCATCGTAATTCGGAGTCACCTAGTGCAG	9780 fluorescence intensity (a.u.)
GGCGGGGCCTTCTTCGCGGTGGCGTCCCTTCTCAGGCGCGCGGAGTCACCTAGTGCAG	14300 fluorescence intensity (a.u.)
CTACTATCATATTTTTTAATAGATGACTCCGTTGACTTTTCGGAGTCACCTAGTGCAG	16800 fluorescence intensity (a.u.)
AATTTCATTAACACCACTTCAGGTTGGCAGGACATGCACTCGGAGTCACCTAGTGCAG	8250 fluorescence intensity (a.u.)
GGCTTTGATGTTTGGTTTCTGATTCCTGAGCTGTACCGATCGGAGTCACCTAGTGCAG	9190 fluorescence intensity (a.u.)
CTTCTTGGTTGCTGTATCAGAAATTCTGCTTCATTGTGTTCGGAGTCACCTAGTGCAG	8510 fluorescence intensity (a.u.)
CTTTTTTTTATTTGGTGCTCTTTGGAGATGTTGTGACAGTCGGAGTCACCTAGTGCAG	8190 fluorescence intensity (a.u.)
AACGATCTTTTCTCTATCCTTTTTTTCGCCGTCGTTAACTCGGAGTCACCTAGTGCAG	9920 fluorescence intensity (a.u.)
ATAGCCTGACTGGAATTCTTTCTGATTTTTTGTTCAAATTCGGAGTCACCTAGTGCAG	11100 fluorescence intensity (a.u.)
GCCCTCACGCCCGGCCGGCCACTCCGCCCCGCGCCGTCTGCGGAGTCACCTAGTGCAG	9840 fluorescence intensity (a.u.)
ACGAAAGTGGAGGGCAAGTTCGAAAGTGGAGGGCAATTAACGGAGTCACCTAGTGCAG	8280 fluorescence intensity (a.u.)
GGCTCGTCGGAGTAGGGGCGCTCGGGGTATGGGGCTCGGCCGGAGTCACCTAGTGCAG	20400 fluorescence intensity (a.u.)
GTTTGACTCTTGAGGAAGCTGCATCCTTTAGGCCTCTCATCGGAGTCACCTAGTGCAG	8860 fluorescence intensity (a.u.)
TCACATCACATCTCACTTTTTTTTTGGGGCTTCCTGGATTCGGAGTCACCTAGTGCAG	11600 fluorescence intensity (a.u.)
TACACTAACCCTACCATCCCGTACACCACCGAAACCCTAACGGAGTCACCTAGTGCAG	8330 fluorescence intensity (a.u.)
GTCAACTACAACATTTGACCGTCCGATTTTTTTTTTTTAGCGGAGTCACCTAGTGCAG	8060 fluorescence intensity (a.u.)
GGCGAGGGGCTCATGGCCGCCGCCTGAGGTGGGGTGGCGGCGGAGTCACCTAGTGCAG	8870 fluorescence intensity (a.u.)
ACTAATGAACTGCAGTGTGACTTTTTTTGTTAGCTCAGCACGGAGTCACCTAGTGCAG	8780 fluorescence intensity (a.u.)

Sequence	binding signal
CTATTCAATTTTAACTCATTGATCTCACATATTAGTTTTTCGGAGTCACCTAGTGCAG	8380 fluorescence intensity (a.u.)
CGATCTCTTCTCTTCATCTCCAGTGTAAAGCTTTTTTGACCGGAGTCACCTAGTGCAG	8020 fluorescence intensity (a.u.)
GCGCTGCACTGTTCCTCTGTCTGTCAGTCACTTGCGCTGTCGGAGTCACCTAGTGCAG	9720 fluorescence intensity (a.u.)
GGATTTTAAGTTTTTACTTGCACTGTTTGACCATTCGTCTCGGAGTCACCTAGTGCAG	9200 fluorescence intensity (a.u.)
TTAAGTAATCAGCACATCATCACTGCATAATTATTGCCATCGGAGTCACCTAGTGCAG	8590 fluorescence intensity (a.u.)
GACATGTAGGGTCCATGTGGATCGCACGTTGACTCAGCCGCGGAGTCACCTAGTGCAG	8620 fluorescence intensity (a.u.)
CGTGCAGCTGTCAAACGCTTTCAATCTGGCGGGGTTTATTCGGAGTCACCTAGTGCAG	12600 fluorescence intensity (a.u.)
ATATGTTTGTTTTGCATTGAAAATATTGCTATATTTTTCTCGGAGTCACCTAGTGCAG	9220 fluorescence intensity (a.u.)
TTCTACGCACAGCTTCGATTAATTACCACTTTTCTCGTATCGGAGTCACCTAGTGCAG	8080 fluorescence intensity (a.u.)
CAATGTTGTCGGCAACGCCGCAGCCGAGCAGCCTGCATCCCGGAGTCACCTAGTGCAG	8660 fluorescence intensity (a.u.)
TCCTCTCTGGTTGGTTTAGTTCTTGTGATTTAATCTTACACGGAGTCACCTAGTGCAG	9700 fluorescence intensity (a.u.)
AATAATAAGAACGGTCAAACATATGCTAAAAAGTCAACGGCGGAGTCACCTAGTGCAG	11500 fluorescence intensity (a.u.)
ACGACGGGACGCGTTTTTTTCCCGGCTCTACCTCTGCAAGCGGAGTCACCTAGTGCAG	8510 fluorescence intensity (a.u.)
ATCCCGGCGAGCTTCTCCTTCGCGCCCGGCCGGCCGCAGCCGGAGTCACCTAGTGCAG	8560 fluorescence intensity (a.u.)
AGTGATCGATAATCCTGCTCCTTTTTTATTACTTATTTTTCGGAGTCACCTAGTGCAG	8680 fluorescence intensity (a.u.)
ATAGTACGTACTTTTTCCTTTTTCAGTATCCCTGTGGCGTCGGAGTCACCTAGTGCAG	8290 fluorescence intensity (a.u.)
GAGCTCCTATTACACCGGGAAACGGGAGCCTTGCTTTGACCGGAGTCACCTAGTGCAG	8290 fluorescence intensity (a.u.)
TTCTTCTTGTGTACTACTGCTACATTATATGCTTCGCCTCCGGAGTCACCTAGTGCAG	9820 fluorescence intensity (a.u.)
AGTCTATTTTTCCTTCCTGTGCTTTGGGTAGTGCCTTATACGGAGTCACCTAGTGCAG	9480 fluorescence intensity (a.u.)
TCCTCTTCATCGTTATCTCTATTTTCTTTCACGTTATTAGCGGAGTCACCTAGTGCAG	14100 fluorescence intensity (a.u.)
GTTGCTGATTTCTTTCGCTTTCTTTTTTCGTTGCAATGCGCGGAGTCACCTAGTGCAG	8050 fluorescence intensity (a.u.)

Reprinted at random: three records from the list, in no set order.
Sequence	binding signal
AGTCTATTTTTCCTTCCTGTGCTTTGGGTAGTGCCTTATACGGAGTCACCTAGTGCAG	9480 fluorescence intensity (a.u.)
GACATGTAGGGTCCATGTGGATCGCACGTTGACTCAGCCGCGGAGTCACCTAGTGCAG	8620 fluorescence intensity (a.u.)
ACGACGGGACGCGTTTTTTTCCCGGCTCTACCTCTGCAAGCGGAGTCACCTAGTGCAG	8510 fluorescence intensity (a.u.)
